Source: article doi:10.1101/2022.10.11.511767
Results are given in words; binding and its absence hold for the method and conditions named.

Sequences of proteins named here, by UniProt entry; tags and fusion partners are left off. A change or cut given only in a name is not applied to a line headed by its entry. Residues count along the entry.
UniProt P06634: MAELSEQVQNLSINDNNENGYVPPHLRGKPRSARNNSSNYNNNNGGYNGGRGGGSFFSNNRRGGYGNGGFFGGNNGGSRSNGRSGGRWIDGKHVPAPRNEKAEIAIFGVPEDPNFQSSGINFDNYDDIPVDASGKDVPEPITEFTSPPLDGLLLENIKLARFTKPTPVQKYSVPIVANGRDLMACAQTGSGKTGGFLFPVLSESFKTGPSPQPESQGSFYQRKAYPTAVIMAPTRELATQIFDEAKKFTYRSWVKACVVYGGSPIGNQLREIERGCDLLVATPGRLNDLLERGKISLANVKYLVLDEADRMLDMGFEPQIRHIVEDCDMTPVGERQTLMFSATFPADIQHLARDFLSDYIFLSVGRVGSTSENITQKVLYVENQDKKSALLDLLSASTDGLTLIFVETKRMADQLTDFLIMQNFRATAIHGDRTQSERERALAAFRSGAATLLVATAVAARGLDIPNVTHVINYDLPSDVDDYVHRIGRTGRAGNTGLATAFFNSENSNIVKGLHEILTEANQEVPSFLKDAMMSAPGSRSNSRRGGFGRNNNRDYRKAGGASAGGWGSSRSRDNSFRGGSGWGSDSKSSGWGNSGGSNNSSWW
N-terminal IDR of Sc Ded1p (residues 1-81): residues 1-81 of P06634
C-terminal IDR of Sc Ded1p (residues 533-604): residues 533-604 of P06634

What was measured:
[1] = target: N-terminal IDR of Sc Ded1p (residues 1-81) (S. cerevisiae) (UniProt P06634); test: NMR titration
[2] = target: C-terminal IDR of Sc Ded1p (residues 533-604) (S. cerevisiae) (UniProt P06634); test: NMR titration

| binding [1] | binding [2] | Substance |
| --- | --- | --- |
| no binding | – | RecA1 domain of Sc Ded1p (residues 82-369) (from UniProt P06634 82-369) (domain or fragment) |
| – | no binding | RecA2 domain of Sc Ded1p (residues 369-535) (from UniProt P06634 369-535) (domain or fragment) |
